Reference: PubChem BioAssay AID198 (DTP/NCI, 2004)
The list does not hold the whole screen: it is rich in T/C values a quarter to a half above the control, in often repeated tests (any T/C) and in doses without a T/C. Other doses and runs of a compound stand elsewhere. T/C is the treated group as % of the vehicle group. Some entries give survivors of the animals treated and no T/C: the source holds a T/C of zero for them, seemingly a mark for toxic or unscored doses. Some survivor counts are full or nearly so, which does not show that the dose was tolerated: the source hardly ever lists a survival T/C far under the control, and the zero likely stands for such cases as well. Survivors were counted at the toxicity check, usually on the fifth day, unless a day is given; later deaths do not show. Schedule codes are those of the source, read here as Q, the interval in days (D) or hours (H), X, the number of doses. Some entries hold several experiments; the values are given in rising order. Where survival is the endpoint, the PubChem record calls one and a half times the control and up active, and a quarter to a half above the control has no call in these data; cut-offs in other NCI protocols can differ.

Tested on: B16 melanoma ip, C57BL/6 mice, median survival T/C
Assay: NCI In Vivo Anticancer Drug Screen. Data for tumor model B16 Melanoma (intraperitoneal) in C57BL/6 mice
Conditions: T/C endpoint: median survival time, schedule: Q01DX009 (ip), higher T/C = longer survival
Procedure: The antitumor activity of compounds was measured in mice bearing transplantable tumors. Survival or tumor size were measured and the results are expressed as the measurement made in the treated group (T) divided by the measurement made in the vehicle treated control group (C). The tumor model used in this assay is B16 Melanoma (intraperitoneal) in C57BL/6 mice

[1] = dose: 0.25 mg/kg/injection, vehicle: saline
[2] = dose: 30.0 mg/kg/injection, vehicle: saline

CC[C@]1(O)C[C@H]2CN(CCc3c([nH]c4ccccc34)[C@@](C(=O)OC)(c3cc4c(cc3OC)N(C=O)[C@H]3[C@@](O)(C(=O)OC)[C@H](OC(C)=O)[C@]5(CC)C=CCN6CC[C@]43[C@@H]65)C2)C1
T/C (dose: 0.06 mg/kg/injection, vehicle: saline): 147 % of control | T/C (dose: 0.13 mg/kg/injection, vehicle: saline): 147 % of control | T/C [1]: 147 % of control | survivor count [1]: 10 of 10 | survivor count (dose: 0.5 mg/kg/injection, vehicle: saline): 7 of 10 and 10 of 10

Nc1nc(CCl)nc(Nc2ccccc2)n1
survivor count (dose: 400.0 mg/kg/injection, vehicle: saline with Tween-80): 2 of 6

CC(CN1CC(=O)NC(=O)C1)N1CC(=O)NC(=O)C1 (stereo unspecified)
survivor count [2]: 6 of 6 | survivor count (dose: 120.0 mg/kg/injection, vehicle: saline): 6 of 6 | survivor count (dose: 240.0 mg/kg/injection, vehicle: saline): 6 of 6

Nc1ccc(Cl)cc1N
survivor count (dose: 200.0 mg/kg/injection, vehicle: other): 10 of 10 | survivor count (dose: 400.0 mg/kg/injection, vehicle: other): 5 of 10

COc1ccc(-c2c(C)c(C(=O)O)nc(-c3ccc4c(O)c(OC)c5c(c4n3)=NC(C)(C)N=5)c2N)c(O)c1OC
survivor count (dose: 40.0 mg/kg/injection, vehicle: saline): 9 of 10

O=NN(CCCl)C(=O)NCCCl
survivor count (dose: 15.0 mg/kg/injection, vehicle: saline): 10 of 10 | survivor count [2]: 10 of 10

O=NN(CCCl)C(=O)Nc1ccc(CCO)cc1
survivor count (dose: 6.25 mg/kg/injection, vehicle: saline): 6 of 6 | survivor count (dose: 12.5 mg/kg/injection, vehicle: saline): 6 of 6
